Reference: article PMC8560872
No constants are given. Whether binding was seen depends on the method and setting. In cells and extracts the contact can be indirect. Some binding calls cover weakened binding; strength is not graded here.

Protein sequences, listed by entry. Tags and fused reporters are not part of them.
UniProt P03146: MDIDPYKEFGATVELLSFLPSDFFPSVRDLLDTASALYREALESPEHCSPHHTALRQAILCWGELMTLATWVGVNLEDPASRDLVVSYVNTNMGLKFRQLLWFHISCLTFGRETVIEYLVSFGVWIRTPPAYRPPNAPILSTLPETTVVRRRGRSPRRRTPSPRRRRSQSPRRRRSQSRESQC
UniProt Q8N6T7: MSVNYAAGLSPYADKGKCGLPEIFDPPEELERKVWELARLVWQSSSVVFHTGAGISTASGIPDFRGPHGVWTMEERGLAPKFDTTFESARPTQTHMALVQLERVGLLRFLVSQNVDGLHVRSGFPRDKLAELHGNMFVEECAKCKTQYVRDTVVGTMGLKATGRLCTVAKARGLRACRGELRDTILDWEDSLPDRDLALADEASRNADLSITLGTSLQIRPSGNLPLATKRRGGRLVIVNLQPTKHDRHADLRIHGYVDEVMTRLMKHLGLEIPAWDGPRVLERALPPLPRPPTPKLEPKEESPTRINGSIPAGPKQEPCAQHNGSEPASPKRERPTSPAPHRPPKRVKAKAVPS
UniProt Q9NRC8: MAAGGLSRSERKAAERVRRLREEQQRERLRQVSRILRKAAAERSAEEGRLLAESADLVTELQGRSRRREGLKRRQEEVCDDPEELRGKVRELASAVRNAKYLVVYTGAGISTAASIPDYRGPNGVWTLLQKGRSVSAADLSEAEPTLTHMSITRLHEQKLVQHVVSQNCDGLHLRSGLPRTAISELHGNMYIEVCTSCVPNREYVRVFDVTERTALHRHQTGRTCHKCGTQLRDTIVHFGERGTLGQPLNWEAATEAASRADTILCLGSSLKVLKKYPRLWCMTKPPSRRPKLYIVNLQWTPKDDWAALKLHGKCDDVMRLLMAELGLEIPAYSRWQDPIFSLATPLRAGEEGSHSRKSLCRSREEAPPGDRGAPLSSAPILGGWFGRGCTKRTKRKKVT
UniProt P03165: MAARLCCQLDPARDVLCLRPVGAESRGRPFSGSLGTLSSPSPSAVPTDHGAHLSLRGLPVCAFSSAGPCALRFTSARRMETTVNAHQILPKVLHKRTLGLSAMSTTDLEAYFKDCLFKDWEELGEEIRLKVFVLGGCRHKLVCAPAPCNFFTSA

Tests used:
[1] = target: HBcAg (Hepatitis B virus) (UniProt P03146); assay: co-IP; transfected HEK293T cells, 48 h after transfection; co-IP buffer 50 mM Tris-HCl pH 7.4, 150 mM NaCl, 5 mM EDTA, 10% glycerol, 0.5% NP-40, sonicated; antibody-conjugated beads at 4 °C; western blotting
[2] = target: SIRT6 (Sirtuin 6) (human) (UniProt Q8N6T7); assay: as above
[3] = target: HBcAg (Hepatitis B virus) (UniProt P03146); assay: co-IP; 293FT cells; co-IP performed mutually (both directions) between SIRT6 and HBcAg

Row | Substance | binding [1] | binding [2] | binding [3]
1 | SIRT7 (from UniProt Q9NRC8 1-400) (enzyme) | binds weakly |  | 
2 | X protein (HBxAg) (from UniProt P03165 1-154) |  | no binding | 
3 | SIRT6 (Sirtuin 6) (from UniProt Q8N6T7 1-355) (enzyme) | binds |  | binds
